Values of other authors as cited in patent publication US6852845B1, “Method of identifying toxic agents using NSAID-induced differential gene expression in liver” (Curagen Corporation, priority 1999, dated 2005).

Tested on: liver
Details: risk class assigned to each NSAID (low, very low, overdose risk)

COc1ccc2cc([C@H](C)C(=O)O)ccc2c1 [Naproxen]
Hepatotoxicity Risk of NSAIDs: Risk: Very Low Risk
